Experimental findings from publication PMC3411645 are described below.

These are yes or no findings as the source states them, for the method shown. Binding seen in cells or lysates may run through a third protein. Some entries that bind do so weakly or less than the wild type.

This experiment has as its target HA-tagged hERG1a (wild type) (human) (UniProt Q12809). Kind of experiment: co-IP; double-stable Flp-Cre cells co-expressing hERG1a-HA and a Flag-tagged hERG1 isoform at a 1:1 ratio (both CMV promoter); lysis in 10 mM Tris-HCl pH 8.0, 150 mM NaCl, 5 mM EDTA, 1% Triton X-100, 1 mg/ml BSA; IP with anti-HA, blot with anti-Flag.

Turning to “Flag-tagged hERG1b (wild type) (from UniProt Q12809-2 1-819)”, the binding result is listed as “binds”. For the substance “HA-tagged hERG1a (wild type) (from UniProt Q12809 1-1159)”, the binding entry is recorded as “binds”.
